From US20150110814A1, “COMBINATION THERAPIES WITH PSMA LIGAND CONJUGATES” (PSMA Development Company, LLC, priority 2013, published 2015)
At least one compound was matched to its structure with a doubt left.

Key:
Assay type in all cases: cell-based, human
[1] = tested on: C4-2 cells; test: Cell viability assay (CellTiter-Glo, inhibition of proliferation, Bliss synergy)
Description: (§1) Cells were plated at a density of 1×10^3 cells in 25 μL in 384-well white-colored microplates (Perkin Elmer) and cultured overnight. The next day, cells were treated with 1 or 2 drugs in a total volume of 50 μL. Cultures were incubated at 37° C. for 7 days. Viability was assessed on days 0 and 7 using CellTiter-Glo (Promega) and an Analyst GT luminescence reader at 560 nm emission (Molecular Devices). The percent inhibition of proliferation was calculated as (Vu−Vt)/(Vu−V0)×100, where Vu, Vt and V0 represent the viability values for untreated cells on day 7, treated cells on day 7, and cells prior to treatment on day 0, respectively. […] Values of >100% reflect cytotoxic compounds or combinations, where Vt<V0.
(§2) Drug combinations were tested in 3 to 7 independent repeat cell viability assays unless otherwise indicated Inhibition data were fit to a four-parameter logistic equation using GraphPad Prism. […] Bliss differences were calculated by subtracting the predicted value (Fc) from the experimentally observed inhibition. Mean Bliss differences were calculated for each point in a matrix of drug-drug combinations, converted to percentages, and assessed for statistical significance from the null value of zero using two-sided t-tests with a significance level of 0.05. Statistical evaluations were not performed in cases where the fractional growth inhibition exceeded unity, since such values fall outside the Bliss framework. In addition, Bliss differences of less than 5% were considered to be of limited biological relevance and were excluded from synergy considerations.

[2] = tested on: LNCaP cells; test: as above
Description: as §1, §2

[3] = tested on: PSMA expression on LNCaP cells; test: Flow cytometry of cell-surface PSMA expression
Description: (§3) For short-term treatments (≦7 days), cells were plated on 24-well plates (BD Falcon) overnight, at a density of 200,000 cells per 500 μL. The next day, wells were exchanged with 500 μL of fresh media that included inhibitor, and incubated at 37° C. until the indicated time point. For the long-term treatments (>7 days), cells were plated on T-25 flasks (BD Falcon) overnight, at a density of 500,000 cells per flask in 5 mL of media. 5 mL of fresh media with or without treatment was exchanged the next day. On weekly splits thereafter, cells were detached with Cell Dissociation solution (Sigma), washed with fresh media, counted using Vi-CELL XR (Beckman Coulter), and split into two T-25 flasks for continued culture with or without inhibitor. Prior to analysis, cells were detached, counted and suspended in PBS (PBS(−), without Ca/Mg, Life Technologies) containing 0.3% bovine serum albumin (BSA, Sigma) and 0.1% sodium azide (VWR). Cells (100,000 in 100 μL) were placed in round-bottom 96-well plates (Falcon) and incubated for 30 minutes at room temperature with 1 μg/mL of anti-PSMA mAb 3.9 conjugated to phycoerythrin (PE). Cells then were washed twice with 200 μL PBS/BSA/azide buffer and read using a FACSCalibur instrument (BD Biosciences). A mouse IgG2b-PE conjugate of irrelevant specificity (Abcam) was included as an isotype control.

[4] = tested on: PSMA in C4-2 cells; test: Western blotting of total PSMA; settings: 7 days
Description: Cells (300,000) were incubated overnight in 6-well plates (BD Falcon) in 4 mL of 10% FBS RPMI1640 media prior to addition of inhibitors. Plates were incubated at 37° C. for an additional 7 days, washed once with 5 mL of cold PBS(−) and placed on ice. Cells were lysed with 130 μL of RIPA Lysis Buffer (Santa Cruz Biotechnology) and then centrifuged at 14,000×g for 10 minutes at 4° C. The supernatant was quantitated for protein concentration using a BCA kit (Pierce/Thermo), resolved under reducing conditions using NuPAGE Novex 4-12% Bis-Tris gels (Life Technologies), and transferred to nitrocellulose using the iBlot 7-Minute Blotting System (Life Technologies). Membranes were blocked using Odyssey Blocking Reagent (LI-COR Biosciences), incubated with primary and secondary antibodies, and visualized using an Odyssey infrared imager (LI-COR Biosciences).

[5] = tested on: PSA; test: Western blotting of PSA; settings: LNCaP or C4-2 whole-cell extracts; 7 days
[6] = tested on: phospho-S6 in LNCaP cells; test: Western blotting of phospho-S6; settings: 7 days
[7] = tested on: phospho-S6 in C4-2 cells; test: Western blotting of phospho-S6; settings: 7 days
[8] = tested on: phospho-Akt (S473) in LNCaP cells; test: Western blotting of phospho-Akt; settings: 7 days
[9] = tested on: PSMA expression on C4-2 cells; test: Flow cytometry of cell-surface PSMA expression; parameters: dose or concentration left out as unconfirmed; settings: 7 days post-treatment
Description: as §3

CO[C@H]1C[C@@H]2CC[C@@H](C)[C@@](O)(O2)C(=O)C(=O)N2CCCC[C@H]2C(=O)O[C@H]([C@H](C)C[C@@H]2CC[C@@H](O)[C@H](OC)C2)CC(=O)[C@H](C)/C=C(\C)[C@@H](O)[C@@H](OC)C(=O)[C@H](C)C[C@H](C)/C=C/C=C/C=C/1C [Rapamycin, rapamycin]
effect on the activity of PSMA ADC [1]: significantly enhanced the activity of PSMA ADC
single-agent antiproliferative effect ([1]; single agent): minimal antiproliferative effects
single-agent antiproliferative effect [2]: inhibited proliferation
cell-surface PSMA expression ([3]; rapamycin 1-100 nM, 7 days): increased PSMA expression in C4-2 cells only
PSMA upregulation (Western) [4]: upregulated PSMA to similar extents
PSA expression (Western) [5]: increased PSA expression
S6 phosphorylation (Western) [6]: effectively ablated S6 phosphorylation
S6 phosphorylation (Western) [7]: effectively ablated S6 phosphorylation
Akt activation (Western) [8]: Akt activation

C[C@]12CC[C@H](O)CC1=CC[C@@H]1[C@@H]2CC[C@]2(C)C(c3cccnc3)=CC[C@@H]12 [Abiraterone, abiraterone]
cell-surface PSMA expression ([3]; antiandrogens concentrations above 1 mM, 7 days post-treatment): approximately doubled
cell-surface PSMA expression [9]: approximately doubled
PSMA upregulation (Western) [4]: upregulated PSMA to similar extents
